# Assay results from PubChem BioAssay AID2685 (National Center for Advancing Translational Sciences (NCATS), 2010).
# This is one part of the list. The main result of the screen is listed elsewhere. These columns were measured beside it and carry no call. Compounds called inactive in the main read-out are mostly missing here. Potencies come from curve fits of mixed quality, noted in brackets.
# Test: qHTS Assay for Lipid Storage Modulators in Drosophila S3 Cells;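 for cell number change: cells counted by Cell Tracker Red CMTPX staining in the red channel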
# Conditions: BODIPY lipid droplet fluorescence, 18-24 h; for cell number change: measured here: cell count max response, cells fed with added oleic acid
# Procedure, shortened: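 Laser-scanning cytometry quantifies lipid droplet accumulation (500–530 nm total intensity; droplet/cell object ratio) in oleic acid-fed (400 uM added) Drosophila S3 cells treated with a concentration series. 20 uM Triacsin C defined 100% inhibition.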
# [1] = measured here: lipid fluorescence (Fed channel) AC50, cells fed with added oleic acid
# [2] = measured here: cell number channel AC50, cells fed with added oleic acid
SMILES,cell number change,AC50 [1],AC50 [2]
Cc1ccc(-c2cc(C(=O)Nc3ccc(S(=O)(=O)N4CC(C)OC(C)C4)cc3)[nH]n2)c(O)c1 (configuration not stated),-18%,"29.1 µM [falling, single point]",–
COc1ccc(NC(=O)CSc2cc(C)ccc2C)cn1,-2.81%,–,–
CCCc1cc(=O)[nH]c(SCC(N)=O)n1,-21.9%,"7.31 µM [falling, partial curve]",–
O=S(=O)(NCc1ccccc1)NCc1ccc(Cl)cc1Cl,-3.6%,"16.4 µM [falling, single point]","0.291 µM [rising, partial curve, poor fit]"
O=C(NNC(=O)c1ccccc1F)c1ccc(-c2ccc(Cl)cc2)o1,7.07%,–,"0.731 µM [falling, single point]"
COc1ccc2c(c1)SC1=NCCS(=O)(=O)N12,5.3%,–,–
Cc1sc2nc(-c3cccnc3)nc(Cl)c2c1-c1ccccc1,30.6%,"16.4 µM [rising, single point]","25.9 µM [rising, single point]"
N#Cc1ccc(-c2csc(NNC(=O)c3ccccc3)n2)cc1,0.638%,–,–
OCCNNC(=S)NC1CC2C=CC1C2 (configuration not stated),8.72%,"6.51 µM [falling, single point]","5.17 µM [falling, single point]"
O=C(c1nnc(Cc2ccc(Cl)cc2)o1)N1CCOCC1,-14.1%,"3.26 µM [falling, single point]",–
CC(C)(C)NC(=O)c1ccncc1,4.07%,"1.16 µM [falling, full curve]",–
Cc1ccc(CNC(=O)C2CCCN2S(=O)(=O)c2ccc(F)cc2)cc1 (configuration not stated),11.8%,"18.4 µM [rising, single point]",–
CS(=O)(=O)N1CCN(c2ccc(NC(=O)COc3ccccc3[N+](=O)[O-])cc2)CC1,16.5%,–,–
COc1ccc(C2CC(c3ccc(Cl)cc3Cl)Nc3nc(N)nn32)cc1 (configuration not stated),–,"0.58 µM [rising, full curve, poor fit]",–
Cc1cc(NC(=O)c2ccccc2)n(-c2nc3ccccc3[nH]2)n1,19.3%,"1.84 µM [rising, partial curve]",–
CCOc1ccc(C(=O)NC2CCN(S(C)(=O)=O)CC2)cc1,6.93%,–,–
Cc1onc(-c2ccc3c(c2)OCO3)c1-c1ccc2[nH]ccc2c1,-10.7%,"11.6 µM [rising, single point]",–
COc1ccccc1NS(=O)(=O)c1ccc2oc(=O)ccc2c1,0.88%,–,–
O=C(/C=C1\NC2(CCCC2)Cc2ccccc21)C(=O)N/N=C/c1ccc(O)c(O)c1,-17.2%,"29.1 µM [falling, partial curve, poor fit]",–
CCc1nnc(NC(=O)[C@@H](NC(=O)c2cc(OC)cc(OC)c2)C(C)C)s1,118%,"29.1 µM [rising, partial curve]","29.1 µM [rising, partial curve, poor fit]"

SMILES,cell number change,AC50 [1],AC50 [2]
CC(=O)Nc1cccc(NC(=O)COc2ccc3c(c2)OCO3)c1,23.1%,"6.51 µM [rising, single point]",–
O=c1c2c(nc(NCCO)n1CC1CCCCC1)-c1ccccc1CC21CCCC1,-6.71%,–,–
CC1(C)C2CCC1(C)C(OC(=O)C[n+]1ccccc1N)C2 (configuration not stated),-18.1%,"3.26 µM [falling, full curve]",–
CCOc1ccc(C(=O)NCC(=O)OCC(=O)N2CCCC2)cc1,2.6%,–,"0.517 µM [falling, single point]"
CCOc1ccc(CN2CCN(c3cc(C)nc4c5c(C)cc(C)nc5nn34)CC2)cc1,–,"0.58 µM [rising, single point]","1.84 µM [rising, partial curve]"
COc1ccccc1CNC(=O)CCNS(=O)(=O)c1ccc2c(c1)CC(C)N2C(C)=O (configuration not stated),17.3%,–,–
Cn1cccc1C1C(C#N)=C(N)OC2=C1C(=O)CCC2 (configuration not stated),0.234%,"16.4 µM [falling, single point]","4.11 µM [rising, single point]"
CC(=O)N1CCCc2cc(S(=O)(=O)N3CCCC(C(=O)NCc4ccccc4Cl)C3)ccc21 (configuration not stated),-3.67%,–,–
COCCn1c(Cc2cccn2C)nnc1SCC(=O)NCc1ccc2c(c1)OCO2,-43.4%,"16.4 µM [falling, single point]","29.1 µM [falling, single point]"
CCC1CCCCN1S(=O)(=O)c1ccc(NC(=O)c2nc(S(C)(=O)=O)ncc2Cl)cc1 (configuration not stated),-23.2%,"29.1 µM [falling, single point]",–
O=C(NCCN1CCN(c2ccccc2F)CC1)C1c2ccccc2C(=O)N2CCc3ccccc3C12 (configuration not stated),91%,"29.1 µM [rising, single point]","20.6 µM [rising, single point]"
Cc1cc(C)c(OCCCCN(C)Cc2ccccc2)c(C)c1,–,"0.259 µM [falling, partial curve]",–
CCCCN(C)Cc1c(C)[nH]c2ccc(C)cc2c1=O,5.99%,"29.1 µM [rising, single point]",–
NC(=S)NN=C(Cc1ccccc1)Cc1ccccc1,-12.3%,–,"0.184 µM [falling, full curve, poor fit]"
CN(C1CCCCC1)S(=O)(=O)c1ccc(-c2ccccn2)s1,-3.7%,–,–
Cc1ccc(S(=O)(=O)c2nc(C)oc2N2CCOCC2)cc1,-16.4%,"5.8 µM [falling, partial curve]",–
COCCNC(=O)c1ccccc1NC(=O)c1ccccc1SC,33.7%,"5.17 µM [rising, full curve]","4.11 µM [rising, full curve, poor fit]"
O=C(CSc1ccc(-c2cccnc2)nn1)Nc1ccc(F)c(F)c1,17%,"0.1 µM [rising, full curve, poor fit]","2.51 µM [rising, partial curve]"
CC(=O)Nc1ccc(OCC(O)Cn2cncn2)cc1 (configuration not stated),-17.8%,"18.4 µM [falling, single point]",–
CCCS(=O)(=O)Nc1ccc(N2CCCCC2)c(S(=O)(=O)Nc2ccccc2OC)c1,36%,–,"2.06 µM [rising, full curve]"

# An excerpt from above in order of molar mass, rising:
SMILES,cell number change,AC50 [1],AC50 [2]
CCCc1cc(=O)[nH]c(SCC(N)=O)n1,-21.9%,"7.31 µM [falling, partial curve]",–
CC(=O)Nc1cccc(NC(=O)COc2ccc3c(c2)OCO3)c1,23.1%,"6.51 µM [rising, single point]",–
Cc1sc2nc(-c3cccnc3)nc(Cl)c2c1-c1ccccc1,30.6%,"16.4 µM [rising, single point]","25.9 µM [rising, single point]"
